Protein sequences, listed by entry. Tags and fused reporters are not part of them. Residues count along the entry.
UniProt P02769, 25-607: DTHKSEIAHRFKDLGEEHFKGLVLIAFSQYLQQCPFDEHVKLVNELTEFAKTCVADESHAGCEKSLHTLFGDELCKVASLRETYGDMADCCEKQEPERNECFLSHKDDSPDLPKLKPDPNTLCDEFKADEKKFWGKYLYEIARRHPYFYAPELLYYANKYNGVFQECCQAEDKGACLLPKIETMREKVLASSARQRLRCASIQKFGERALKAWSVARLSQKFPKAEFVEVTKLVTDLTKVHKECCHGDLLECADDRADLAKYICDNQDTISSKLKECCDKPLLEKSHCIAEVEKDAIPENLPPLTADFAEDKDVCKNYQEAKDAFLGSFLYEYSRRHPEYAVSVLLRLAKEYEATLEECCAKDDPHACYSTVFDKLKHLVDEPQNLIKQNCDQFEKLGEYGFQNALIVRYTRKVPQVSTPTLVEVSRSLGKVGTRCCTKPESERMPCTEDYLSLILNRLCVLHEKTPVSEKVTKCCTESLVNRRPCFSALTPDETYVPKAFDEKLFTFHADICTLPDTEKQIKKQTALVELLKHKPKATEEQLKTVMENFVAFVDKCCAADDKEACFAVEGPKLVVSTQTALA

According to PMC8409151, “GT198 Is a Target of Oncology Drugs and Anticancer Herbs” (Frontiers in Oral Health, 2021):

How the values were obtained:
[1] = target: BSA (UniProt P02769); assay: plate binding assay (immobilized protein, streptavidin-HRP chemiluminescence); details: BSA alone, negative control; biotin before the first printed base (5'); 20 mM Tris-HCl pH 7.5, 50 mM NaCl, 75 mM KCl, 0.5 mM MgCl2, 0.05% Triton X-100, 10% glycerol, 1 mM DTT; 4 C, 4 h to overnight; 400 ng/well GT198 plus 5 ug BSA; commercial protein; label: biotin; single-stranded DNA
[2] = target: T1, GT198 (Hop2), C-terminally truncated del181-217 (human) (UniProt Q9P2W1); assay: as above; details: 100 nM doxorubicin (competitive, curve shifted right, Km increased); biotin before the first printed base (5'); 20 mM Tris-HCl pH 7.5, 50 mM NaCl, 75 mM KCl, 0.5 mM MgCl2, 0.05% Triton X-100, 10% glycerol, 1 mM DTT; 4 C, 4 h to overnight; 400 ng/well GT198 plus 5 ug BSA; recombinant protein; residues 1-180; protein details: N-terminal His; label: biotin; single-stranded …
T1 sequence (looked up): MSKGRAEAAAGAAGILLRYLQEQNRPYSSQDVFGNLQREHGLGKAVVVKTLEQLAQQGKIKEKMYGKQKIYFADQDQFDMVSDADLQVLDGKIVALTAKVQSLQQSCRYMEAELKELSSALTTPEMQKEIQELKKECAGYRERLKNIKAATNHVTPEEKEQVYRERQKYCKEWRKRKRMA

“CCTGGGGTTGCTGAGGTCCTGGCAG [biotin 25-mer ssDNA]”: no binding [1]; binds more weakly [2].

For some assays here: A negative result means that nothing was seen under these conditions. For some assays here: At least one verdict was read from the data and is not stated in words by the source. For some assays here: Construct, isoform or probe ends are uncertain for at least one entry. For some assays here: The comparison behind a weaker result is the experiment's own reference, which may not be listed here. For some assays here: Where a protein sequence is shown, tags need not be part of it.
